Substitutions are numbered along the chain they refer to. Results are given in words; binding and its absence hold for the method and conditions named. Some binding calls cover weakened binding; strength is not graded here.
T1: [C]-…-amide antigen peptide (human)
T1 sequence (peptide, C-terminal amide): CKKIETHKLTFREN

The chains behind the UniProt entries cited, without tags or fusion partners. Where a name states a change or a piece, a line headed by the entry shows the natural chain unless it says otherwise.
UniProt P10636: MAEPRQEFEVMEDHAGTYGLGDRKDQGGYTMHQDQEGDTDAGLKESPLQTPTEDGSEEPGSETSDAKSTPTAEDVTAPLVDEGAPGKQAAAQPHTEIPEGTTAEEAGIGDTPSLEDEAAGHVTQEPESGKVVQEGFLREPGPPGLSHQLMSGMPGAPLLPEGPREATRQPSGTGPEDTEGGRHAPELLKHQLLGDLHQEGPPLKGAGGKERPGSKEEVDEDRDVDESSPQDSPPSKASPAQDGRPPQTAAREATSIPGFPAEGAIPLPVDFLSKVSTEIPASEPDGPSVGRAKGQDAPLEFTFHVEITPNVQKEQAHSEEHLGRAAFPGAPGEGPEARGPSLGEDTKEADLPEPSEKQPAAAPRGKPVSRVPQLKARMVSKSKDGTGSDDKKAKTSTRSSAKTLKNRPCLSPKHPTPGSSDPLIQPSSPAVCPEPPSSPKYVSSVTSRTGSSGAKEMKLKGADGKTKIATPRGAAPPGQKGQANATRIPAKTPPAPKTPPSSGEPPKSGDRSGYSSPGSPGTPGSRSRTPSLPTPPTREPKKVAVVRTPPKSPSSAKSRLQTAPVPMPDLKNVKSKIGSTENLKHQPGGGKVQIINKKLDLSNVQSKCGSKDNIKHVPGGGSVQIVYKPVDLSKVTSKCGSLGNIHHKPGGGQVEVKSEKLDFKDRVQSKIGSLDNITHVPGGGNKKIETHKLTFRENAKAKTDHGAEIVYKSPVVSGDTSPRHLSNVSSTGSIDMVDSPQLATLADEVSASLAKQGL

B1: anti-tau rabbit IgG Clone 6 (#34) (antibody, V domains shown)
VH: QSVEESGGRLVTPGTPLTLTCTVSGIDLNKNAMIWVRQAPGKGLEYIGNIGTRGTTYYASWTKGRFTISRTSTTVDLKMTSPTTEDTATYFCTRGDIWGPGTLVTVSL
VL: AQVLTQTPSPVSAPLGGTVTINCQSSQSVNNNDLAWYQQKPGQRPKVLIYEASTLASGVSSRFKGSGSGTQFTLTISDVQCDDAATYYCLGEFSCSSADCVAFGGGTELVVKG
B2: anti-tau rabbit IgG Clone 8 (#41) (antibody, V domains shown)
VH: B1 VH with V3M, N29S, K30S, R53H, T62A, R70K, T93S
VL: AQVLTQTPSPVSVAVGGTVTINCQASQSVDNNNNLAWYHQKPGQPPKLLIYEASTLASGVSSRFKGSGSGTQFTLTISGVQCDDAATYYCLGEFSCSSADCVAFGGGTEVVVKG
B3: anti-tau rabbit IgG Clone 10 (#65) (antibody, V domains shown)
VH: B1 VH with N29S, K30S, R53H, T62S, R70K, T93S
VL: B2 VL with P8A, V13A, N22Y, H39Q, G79D, V110M
B4: anti-tau rabbit IgG Clone 12 (#5) (antibody, V domains shown)
VH: QSLEESGGRLVTPGTPLTLTCTVSGIDLSSYAVGWVRQAPGKGLEWIGCIDSHDNTFYASWAKSRFTISKTSTTVDLKITSPTTEDTATYFCARDSGAFNPWGPGTLVTVSS
VL: ARVLTQTPSPVSAAVGGTVTINCQASQSVYDNYLSWYQQKPGQPPKLLIHAVSNLASGVPSRFKGSGSGTQFTLTISDVQCDDAATYYCLGEFYCSSIDCNAFGGGTEVVVKG
B5: anti-tau rabbit IgG Clone 15 (#77) (antibody, V domains shown)
VH: QSVEESGGRLVTPGGSLTLTCTVSGIDLSSYAMTWVRQAPGKGLEWIGCIDTGGSAYYASWAKGRFTISKTSTTVALKITSPTTEDTATYFCARDTGAFDPWGPGTLVTVSS
VL: QIVMTQTPASVSVAVGGTVTINCQASQSVYDNNLAWYQQKPGQPPKLLIVAASNLPSGVPSRFKGSGSGTQFTLTISDVQCDDAATYYCLGEFSCSSTDCNAFGGGTEVVGKG
B6: anti-tau rabbit IgG Clone 13 (#37) (antibody, V domains shown)
VH: QSLEESGGRLVTPGGSLTLTCTVSGIDLSSYAMGWVRQAPGKGLEWIGCIDRRGATFYASWAKGRFTISKTSTTVDLKMTSLTTEDTATYFCARDSGAFDPWGPGTLVTVSS
VL: QIVMTQTPSPVSAAVGGTVTIKCQASQSVYDNYLSWYHQKPGQPPKLLIHAASNLASRVPSRFKGSGSGTQFTLTISDVQCDDAATYYCLGEFSCTTTDCNVFGGGTEVVVKG
B7: anti-tau rabbit IgG Clone 14 (#56) (antibody, V domains shown)
VH: B6 VH with L3V, G15T, S16P, S29N, A55G
VL: B6 VL with A13V, S35A, H38Q
B8: anti-tau rabbit IgG Clone 5 (#61) (antibody, V domains shown)
VH: B6 VH with L3V, G15T, S16P, V23A, S30T, G34A, A55G
VL: B6 VL with A13V, S35A, H38Q, R58G, Q71E
B9: anti-tau rabbit IgG Clone 9 (#87) (antibody, V domains shown)
VH: B4 VH with S64G
VL: B4 VL
B10: anti-tau rabbit IgG clone #45 (Clone 4) (antibody, V domains shown)
VH: B4 VH with S52G, H53R, N55S, T56A, S64G
VL: B4 VL with Y88S
B11: anti-tau rabbit IgG Clone 16 (#10) (antibody, V domains shown)
VH: B4 VH with H53R, N55S, T56A, S64G
VL: B4 VL with A14V
B12: anti-tau rabbit IgG Clone 7 (#43) (antibody, V domains shown)
VH: B5 VH with G15T, S16P, T34S, T52S, G53R, A56V, A76D, I79V, T96S
VL: B5 VL with V13A, N22S, N33Y, A35S, P56A, S94Y, T98M, G111V
B13: anti-tau rabbit IgG Clone 11 (#47) (antibody, V domains shown)
VH: B6 VH with L3V, T12P, G15T, S16P, S29N, S30N, G34A, A55G
VL: B6 VL with A13V, S35A, H38Q
B14: anti-tau rabbit IgG Clone 17 (#69) (antibody, V domains shown)
VH: B6 VH with L3V, G15T, S16P, S30I, S60T, M79L
VL: B6 VL with Y33N, S35A, H38Q, K64S

biological target: full length recombinant 2N4R tau (human) (UniProt P10636); assay: ELISA, HEK supernatant 1:50 on coated full length 2N4R tau, anti-rabbit IgG-HRP

binding, binds:
B1, B2, B3, B4, B5, B6, B7, B8, B9, B10, B11, B12, B13, B14

biological target: full length recombinant 2N4R tau (human) (UniProt P10636); assay: ELISA, antigen coated, HEK293F supernatant, anti-rabbit IgG-HRP

binding, binds:
B1, B2, B3, B4, B5, B6, B7, B8, B9, B10, B11, B12, B13, B14

biological target: T1, [C]-…-amide antigen peptide (human); assay: as above

binding, binds:
B1, B2, B3, B4, B5, B6, B7, B8, B9, B10, B11, B12, B13, B14

biological target: T1, [C]-…-amide antigen peptide (human); assay: ELISA, HEK supernatant 1:50 on coated peptide (SEQ ID NO: 13), anti-rabbit IgG-HRP

binding, binds:
B1, B2, B3, B4, B5, B6, B7, B8, B9, B10, B11, B12, B13, B14

biological target: full length recombinant 2N4R tau (human) (UniProt P10636); assay: western blot, HEK supernatant as primary antibody

binding, binds:
B10

biological target: full length recombinant 2N4R tau (human) (UniProt P10636); assay: western blot with HEK supernatant; recombinant 2N4R tau 200, 67, 22 ng in lanes 1-3

binding, binds:
B10

biological target: full length recombinant 2N4R tau (human) (UniProt P10636); assay: western blot, HEK293F supernatant as primary antibody

binding, binds:
B10

— patent US20230192826A1
